PubChem BioAssay AID1224826, NIAID, 2016
Screen: 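Knock-downs that raise or lower Tnf reporter signal after endotoxin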 (primary screen). System: RAW264.7 G9 macrophages from mouse bearing reporters for p65 (GFP) and the Tnf promoter (mCherry). Reagents: siRNA pool against mouse genes, 100 nM. Time to read-out: 16 h of LPS stimulation, after 2 days of siRNA transfection. Conditions: bacterial lipopolysaccharide (Salmonella minnesota R595), 10 ng/ml. Measurement: 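Nuclear mCherry signal of the Tnf promoter reporter measured by imaging after background removal, scaled to each plate median and turned into robust z-scores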. Scale: Tnf reporter robust z-score: higher = stronger Tnf promoter reporter signal after LPS; Tnf reporter intensity: higher = stronger Tnf promoter reporter signal. Hit rule: 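Called active when robust z-score is at most -1.3, matching the median of the Tlr4 knock-down control, or over 3; control wells and wells with under 50 cells never active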. Calls: active = Tnf reporter clearly lowered or raised; inactive = no clear change in Tnf reporter.
Shown is an unselected part of about 17,000 deposited reagents. About 1,110 of them (6.6%) were called active. 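Active means lowered or raised reporter signal; replicate intensities are raw and not normalised per plate.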 Unmarked entries are inactive.

The opening 5 entries, ahead of the listing:
| Tnf reporter robust z-score | fewer than 50 cells in well | Tnf reporter intensity, replicate 1 | Tnf reporter intensity, replicate 2 | gene | PubChem SID |
| --- | --- | --- | --- | --- | --- |
| -1.42 (active) | enough cells in well | 83.8 | 135 | BC016579 | SID315477773 |
| -0.26 | enough cells in well | 198 | 75.4 | Slc46a3 | SID315474284 |
| 1.42 | enough cells in well | 257 | 241 | Alppl2 | SID315465375 |
| -0.67 | enough cells in well | 186 | 153 | Dspp | SID315481992 |
| 0.43 | enough cells in well | 169 | 221 | Agtrap | SID315465355 |

The list itself, from the start:
| Tnf reporter robust z-score | fewer than 50 cells in well | Tnf reporter intensity, replicate 1 | Tnf reporter intensity, replicate 2 | gene | PubChem SID |
| --- | --- | --- | --- | --- | --- |
| -1.42 (active) | enough cells in well | 83.8 | 135 | BC016579 | SID315477773 |
| -0.26 | enough cells in well | 198 | 75.4 | Slc46a3 | SID315474284 |
| 1.42 | enough cells in well | 257 | 241 | Alppl2 | SID315465375 |
| -0.67 | enough cells in well | 186 | 153 | Dspp | SID315481992 |
| 0.43 | enough cells in well | 169 | 221 | Agtrap | SID315465355 |
| -0.63 | enough cells in well | 111 | 165 | Slc9b2 | SID315476093 |
| 0.04 | enough cells in well | 277 | 64 | Krt42 | SID315473469 |
| -0.46 | enough cells in well | 150 | 133 | Vsx2 | SID315465969 |
| 0.87 | enough cells in well | 377 | 265 | Sema6b | SID315469184 |
| -0.95 | enough cells in well | 59.8 | 116 | Pla2g2f | SID315470508 |
| 0.78 | enough cells in well | 331 | 80.1 | 1700055D18Rik | SID315474720 |
| 1.5 | enough cells in well | 220 | 170 | Pramel3a | SID315475846 |
| -1.24 | enough cells in well | 94.1 | 89.8 | Ubr5 | SID315474129 |
| 2.21 | enough cells in well | 290 | 258 | Tmprss11e | SID315479663 |
| -0.19 | enough cells in well | 211 | 132 | Sema3e | SID315469174 |
| – | fewer than 50 cells per well; well left out of calls | 74.5 | 57 | Sema3e | SID315469175 |
| 0.08 | enough cells in well | 222 | 253 | Yme1l1 | SID315470590 |
| -0.54 | enough cells in well | 157 | 118 | Lrrn1 | SID315467766 |
| -0.52 | enough cells in well | 228 | 179 | Smpd1 | SID315469335 |
| – | fewer than 50 cells per well; well left out of calls | 181 | 95.9 | Opcml | SID315481624 |
| – | fewer than 50 cells per well; well left out of calls | 175 | 71.2 | Cfap418 | SID315472873 |
| 1.4 | enough cells in well | 216 | 196 | Or8b54 | SID315480426 |
| -0.3 | enough cells in well | 177 | 97.9 | Or13p8 | SID315479994 |
| 1.24 | enough cells in well | 327 | 293 | Cul5 | SID315475185 |
| 1.21 | enough cells in well | 276 | 232 | Rnasek | SID315471029 |
| 0.49 | enough cells in well | 210 | 180 | Lnpk | SID315473845 |
| 1.43 | enough cells in well | 326 | 162 | Mrps15 | SID315472424 |
| -1.43 (active) | enough cells in well | 132 | 95.8 | Pop7 | SID315474842 |
| -1.44 (active) | enough cells in well | 109 | 73.4 | D630039A03Rik | SID315479617 |
| 0.2 | enough cells in well | 221 | 71.4 | Usp50 | SID315475073 |
| -0.13 | enough cells in well | 141 | 151 | Camp | SID315466031 |
| 2.76 | enough cells in well | 380 | 465 | Cyld | SID315474924 |
| 0.05 | enough cells in well | 234 | 238 | Mlf2 | SID315470757 |
| -0.64 | enough cells in well | 153 | 178 | Hnf4g | SID315470777 |
| -0.66 | enough cells in well | 128 | 137 | Chst7 | SID315472005 |
| – | fewer than 50 cells per well; well left out of calls | 55.2 | 64.8 | Pold4 | SID315473889 |
| 2.21 | enough cells in well | 262 | 332 | Arhgef10 | SID315479138 |
| 0.74 | enough cells in well | 185 | 211 | Cmbl | SID315473835 |
| 0.18 | enough cells in well | 321 | 223 | Sap30 | SID315472013 |
| 0.86 | enough cells in well | 167 | 131 | Sh2b1 | SID315469209 |
